# Primary screen of a compound library

Protein sequences, listed by entry. Tags and fused reporters are not part of them. Residues count along the entry.
UniProt P9WNZ1, whole entry: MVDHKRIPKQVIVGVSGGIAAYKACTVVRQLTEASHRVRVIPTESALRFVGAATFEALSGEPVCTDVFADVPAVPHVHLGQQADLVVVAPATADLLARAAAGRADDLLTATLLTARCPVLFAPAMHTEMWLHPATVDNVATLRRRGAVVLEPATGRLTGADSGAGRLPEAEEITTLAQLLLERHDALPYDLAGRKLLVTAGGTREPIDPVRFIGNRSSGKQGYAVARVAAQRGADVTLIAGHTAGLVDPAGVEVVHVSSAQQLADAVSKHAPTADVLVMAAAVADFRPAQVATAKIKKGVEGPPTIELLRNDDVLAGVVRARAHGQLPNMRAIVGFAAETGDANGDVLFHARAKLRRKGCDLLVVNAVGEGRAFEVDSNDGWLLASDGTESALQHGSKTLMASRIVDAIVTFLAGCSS
UniProt A4I591, 1-473: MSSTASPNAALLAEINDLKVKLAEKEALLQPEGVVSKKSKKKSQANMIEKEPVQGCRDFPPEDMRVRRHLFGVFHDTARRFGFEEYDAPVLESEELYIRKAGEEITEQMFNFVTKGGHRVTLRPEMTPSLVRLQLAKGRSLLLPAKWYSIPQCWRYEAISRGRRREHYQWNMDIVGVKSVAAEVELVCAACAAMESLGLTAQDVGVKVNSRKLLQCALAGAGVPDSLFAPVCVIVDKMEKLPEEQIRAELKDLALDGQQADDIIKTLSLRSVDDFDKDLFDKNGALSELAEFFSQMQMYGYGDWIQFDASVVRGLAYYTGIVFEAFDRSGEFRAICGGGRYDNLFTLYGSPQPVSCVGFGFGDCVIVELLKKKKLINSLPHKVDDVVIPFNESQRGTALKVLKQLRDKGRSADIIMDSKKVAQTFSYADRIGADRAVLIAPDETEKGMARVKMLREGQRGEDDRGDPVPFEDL

CoaBC: 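Enzyme assay of CoaBC with a phosphate dye (Biomol Green) read at 650 nm. Target: Coenzyme A biosynthesis protein CoaBC, Mycobacterium tuberculosis (UniProt P9WNZ1). Tested at 30 µM. Direction is inferred from only a few compounds that gave an IC50; most scored high, so higher reads as stronger inhibition. Most strong results did not repeat in a second test. About 67,000 compounds were tested under these conditions; 0.06% (about 40) showed 50% or more at least once.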
LiHisRS: 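Enzyme assay of histidyl-tRNA synthetase; the read-out is not stated. Target: Histidine-tRNA ligase, Leishmania infantum (UniProt A4I591). Tested at 30 µM. The record gives no direction; compounds that gave an IC50 in retests scored well above the rest, so higher reads as stronger inhibition. The assay is labelled LdHisRS but filed under L. infantum. Size under these conditions: about 69,000 compounds, about 410 of them at 50% or above in at least one test.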
Leishmania in macrophages: 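Cell assay of Leishmania donovani living inside macrophages; the read-out is not stated. Concentration: 30 µM. Higher reads as stronger inhibition (inferred: compounds with an IC50 in retests scored well above the rest). Of about 69,000 compounds tested this way, about 1,000 (1.5%) reached 50% or more in at least one test.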

Values are the deposited “Percent Effect”, in %.
The controls that fix the scale are not given in the record; negative values are as filed.
This is an unselected part of the compounds tested.
Two or more numbers in one place are separate tests of the same structure; such repeats can differ widely.
A dash means the value is not listed here; it may have been measured.

| structure | CoaBC | LiHisRS | Leishmania in macrophages |
|---|---|---|---|
| `COc1cccc(CN2CCC3(CCN(C(=O)[C@H]4CCCO4)CC3)C2)c1.O=C(O)C(F)(F)F` | - | - | 43.52 |
| `CNS(=O)(=O)c1cc(C)c2[nH]c(=O)cc(C)c2c1` | 2.658 | 10.84 | -25.34 |
| `CS(=O)(=O)N1CCC2(CC1)CC(NCc1ccco1)c1ccccc12.O=C(O)C(F)(F)F` (stereo not shown) | - | - | 16.74 |
| `CNCc1cn(C2CCN(C(=O)NCc3ccco3)CC2)nn1` | 1.843 | 9.302 | 17.91 |
| `O=C(NCCc1csc(-c2cnccn2)n1)c1cnn[nH]1` | 3.24 | 1.653 | -9.317 |
| `COCCNC(=O)NCCCOC1CCCc2ccccc21` (stereo not shown) | 1.927 | 18.97 | 1.03 |
| `CCc1nc(CN2CC(C(=O)OC)O[C@H](C)C2)cs1` (stereo partly shown) | 0.3891 | 0.9009 | 20.62 |
| `O=C(c1cc(-n2cnnn2)ccc1Cl)N1CCC2(CC1)OCCO2` | 4.993 | 5.714 | -22.03 |
| `O=C(c1cscn1)N1CCC2(CCN(Cc3cccs3)CC2)C1` | 1.542 | 12.03 | - |
| `CCN1CCC(NN2CCN(C)CC2)CC1` | -27.37 | 6.452 | 19.66 |
| `CC(C)=CCC1(CO)CCCN(S(=O)(=O)N2CCCC2)C1` (stereo not shown) | 9.369 | 0 | 3.473 |
| `Cn1cc(Br)c(C(=O)NCCn2cc(Br)cn2)n1` | 2.181 | 15.93 | 37.01 |
| `Cc1noc([C@H]2C[C@H]3CN(C(=O)C4CCOCC4)CC[C@@H]3O2)n1` | 2.03 | 20.59 | - |
| `CCS(=O)(=O)N1CCC(Nc2c(Cl)cccc2C#N)CC1` | -1.408 | 9.877 | 42.91 |
| `CS(=O)(=O)NCc1cnc2n1CCN(Cc1ccccn1)CC2` | 4.562 | 8.065 | - |
| `[H][C@]12CN(C(=O)c3cnc(C)nc3)CC[C@@]1(O)CCN(C1CCCCC1)C2` | - | - | 11.98 |
| `CCn1cc(CN2CCC(c3ccncc3)CC2)cc1C#N` | 9.615 | 22.92 | 17.03 |
| `Cc1cccnc1CN1CCN(C(=O)CCn2ccccc2=O)CC1` | 1.852 | 4.301 | 8.13 |
| `O=C(O)C(F)(F)F.[H][C@@]12CCN(S(=O)(=O)c3ccccc3)C[C@]1([H])[C@@H](CN(C)C)OC2` | - | - | 4.001 |
| `CCc1ccc(CN2CC[C@@H]3NC(=O)CC[C@@H]32)o1` | -2.445 | 1.923 | - |
| `CN(Cc1cccs1)C1CCC[C@@H]2CN(C(=O)c3cccn3C)C[C@H]12` (stereo partly shown) | - | 17.24 | - |
| `COc1ccc(CNC2CCc3ncnn3C2)cc1OCC1CC1` (stereo not shown) | -0.2427 | 2.381 | 1.412 |
| `CCc1nc(CCn2ccc3nc(OC)c(C#N)cc3c2=O)no1` | 4.536 | 17.14 | 14.14 |
| `CN1CCC(n2nc(Cc3cccc(Cl)c3)nc2Cn2cnnn2)CC1` | 2.236 | 12.7 | 9.732 |
| `Cc1cc(=O)n2ncnc2n1CC(O)c1cc(Cl)ccc1Cl` (stereo not shown) | 5.854 | 16 | 5.834 |
| `CCNC(=O)[C@@H]1C[C@H](N)CN1C(=O)CCc1ccc(C)c(C)c1` | 1.028 | 0 | -10.95 |
| `CCN(C(C)=O)c1nc(CN2CCN(c3nccs3)CC2)cs1` | 3.415 | 11.2 | -29.6 |
| `Cc1cc2nccc(C3CCCN(C(=O)c4ccccc4F)C3)n2n1` (stereo not shown) | 2.331 | 2.837 | -43.67 |
| `CC(=O)N1CCC(N2CCOC[C@H]2c2nc(-c3ccncc3)c[nH]2)CC1` | 4.194 | 12.16 | 11.68 |
| `Cc1ccc(CNCC(C)Oc2ccccn2)cc1.Cl` (stereo not shown) | - | - | 5.495 |
| `COc1cccc(N2CCN(CC(O)c3cc(C)sc3C)CC2)c1` (stereo not shown) | -8.611 | 16.67 | 35.69 |
| `O=C(c1ccccn1)N1CCN(c2ccc(-c3cccnc3)nn2)CC1` | 2.418 | 21.95 | 12.67 |
| `CC(C)c1nc(C2CCCN(c3ncccn3)C2)no1` (stereo not shown) | 9.921 | 25 | 3.571 |
| `Cl.Cl.O[C@@H]1C[C@@](CNCc2cccc(Cl)c2)(COc2cnccn2)C[C@@H]1O` | - | - | 15.63 |
| `Cc1nnc(N2CC[C@@]3(O)CCNC[C@H]3C2)c2ccccc12` | 3.674 | 16.33 | - |
| `CCOCC(=O)NC(C#N)c1cnn(-c2ccccc2)c1` (stereo not shown) | -1.72 | -12.9 | 14.49 |
| `N#Cc1ccc(OCCNCCn2cccn2)cc1` | 5.98 | 9.565 | 10.06 |
| `CSCc1cccc(S(=O)(=O)Nc2cc(C)on2)c1` | 2.87 | 12.39 | -26.7 |
| `Cc1ccc2c(c1)c(C)cc(=O)n2CCC#N` | -0.5612 | 4.301 | 28.01 |
| `CCn1cc(S(=O)(=O)N2CCC3(CCCN(CC4CCC4)C3=O)C2)cn1` (stereo not shown) | 8.696 | 18.31 | 5.989 |
| `O=C1NC(c2ccccc2)=N[C@@]12CC[C@@H]1CN(Cc3ccoc3)C[C@@H]12` | -3.226 | 11.11 | - |
| `CC(C)CN1CCc2c(CN(C)Cc3ccco3)cncc2C1` | -0.3699 | -2.778 | - |
| `CCC(Nc1nnnn1-c1ccccc1)C(=O)NCc1cccs1` (stereo not shown) | 4.622 | 9.402 | 14.73 |
| `CCN(CCc1nccs1)C(=O)c1ccco1` | 2.236 | 0 | 36.41 |
| `O=C1COC2(CCN(CC3CC3)CC2)CN1c1ccccc1` | -2.366 | 13.33 | - |
| `COCC(=O)N1CC[C@@H]2CN(Cc3cccnc3)S(=O)(=O)[C@@H]2CC1` | 3.951 | 11.82 | - |
| `CC(C)NC(=O)[C@@H]1C[C@@H](N)CN1C(=O)CCSCc1ccccc1` | -6.65 | 14.75 | 17.42 |
| `CN1CCN(C(=O)c2cccc(OCc3cscn3)c2)CC1` | 1.813 | 8.511 | 5.062 |
| `COCC(=O)N1CCCC1c1cc(N2CCN(C(C)=O)CC2)cc(C)n1` (stereo not shown) | 0.4854 | 18.84 | 1.414 and 7.026 |
| `CCc1nsc(N2CCCN(C(=O)c3ccc(OC)cc3)CC2)n1` | 4.762 | 6.25 | 10.99 |
| `CCC(C)(C)NC(=O)COC(=O)c1cc(C)ccc1NC(=O)N(C)C` | 2.723 | 12 | 9.489 |
| `CNC(=O)Cn1c(-c2ccco2)nn(-c2ccccc2OC)c1=O` | -1.515 | -4.918 | -19.58 |

The values are deposited in ChEMBL (CHEMBL3988442, “University of Dundee, Small-Polar-MMV Screening Library” (2021)).